# Data published in the supplement of paper PMC8007513.
# The list shows a part of the results. Many values rest on one well or one pass, so single values are uncertain.
# Test system: Saccharomyces cerevisiae BY4743
# Experiment: growth (OD600) relative to untreated control; higher = less growth inhibition
# Settings: compound concentration: 133 uM; 20 h
# Experimental: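 NMCCC compounds (133 uM, no IPBC) tested alone against Saccharomyces cerevisiae BY4743 in YPD, 96-well plates, starting OD600 ~0.1. Growth was read as OD600 at 20 h and expressed as % of the untreated control. Single pass.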
row,Structure (SMILES),growth [%]
1,O=C(CNc1nccs1)c1c[nH]c2ccccc12,100
2,Cc1cc2c(N)c(C(N)=O)sc2nc1-c1ccc(F)cc1,105
3,COC(=O)c1cccc2c1CCCN2Cc1ncc(C(C)(C)C)o1,105
4,CC\C1=N\N(CC(O)=O)C(=O)C2=CC3=C(C=CS3)[N]12,100
5,Cc1ccc(S(=O)(=O)CCC(=O)OC(C)C(=O)N(C)c2ccccc2)cc1 (stereo not drawn),106
6,CCCc1cc(O)nc(SCC(=O)N2CCc3sccc3C2)n1,110
7,COC1(C(=O)C(=O)Nc2ccccc2Cl)NC(C)(C)Cc2ccccc21 (stereo not drawn),64.9
8,O=C(Nc1cccc(N2CCCS2(=O)=O)c1)C(=O)N[C@H](CO)Cc1ccccc1,92
9,CCC(C)[C@H](N)c1nnc(SCc2ccc(Cl)c(Cl)c2)o1 (stereo partly drawn),98
10,CC/1=C/C(=O)N(/C(=C1C(=O)OCC(=O)NC2(CCCC2)C#N)C)C3=CC=CC=C3,97.9
11,COC(=O)c1nn(CC(=O)c2ccc(F)cc2)c2ccccc12,94.8
12,Cc1ccc(-c2cc(NC(=O)CNC(C)c3ccc(F)cc3F)on2)cc1 (stereo not drawn),97.7
13,Cn1cccc1Cc1nnc(SCC(N)=O)n1-c1ccc(Cl)cc1,93.2
14,Cc1cc(C)n(CCC(=O)NCCN2CCN(c3cc(Cl)ccc3C)CC2)n1,102
15,CCOC(=O)\C1=C(/CN(CC)CC)N(C)C(=O)NC1C2=CC=CC=C2 (stereo not drawn),88
16,COc1cc(NC(=O)c2ccc3c(c2)NC(=O)CS3)cc(OC)c1OC,107
17,Cc1cc(F)ccc1-n1nnc(C(=O)OCc2ccc(F)cc2)c1C,76.2
18,Oc1nc2ccccc2nc1SCc1ccon1,97.9
19,CCOc1ccc(CC(=O)NCc2cn3c(C)csc3n2)cc1,107

# 2 of the compounds above, tab-delimited:
row	Structure (SMILES)	growth [%]
2	Cc1cc2c(N)c(C(N)=O)sc2nc1-c1ccc(F)cc1	105
11	COC(=O)c1nn(CC(=O)c2ccc(F)cc2)c2ccccc12	94.8

# Carrying on:

row,Structure (SMILES),growth [%]
1,O=C(NCC(c1ccco1)S(=O)(=O)c1cccs1)C(=O)NC1CCCCC1 (stereo not drawn),99
2,CCC(C(=O)N1CCOCC1)n1c(C(=O)OC)cc2sc(C)cc21 (stereo not drawn),110
3,O=C(CN(c1cc(C(F)(F)F)ccc1Cl)S(=O)(=O)c1ccccc1)N1CCOCC1,105
4,COC(=O)C(CC(C)C)NC(=O)c1ccc(S(=O)(=O)N2CCc3ccccc3C2)cc1 (stereo not drawn),96.1
5,Cc1ccc(-c2nc(CC(=O)OCC(=O)c3ccc[nH]3)cs2)cc1,103
6,CCOC(=O)N1CCN(c2ncc3c(n2)CCCC3=O)CC1,114
7,COC(=O)CN(c1cc(C)cc(C)c1)S(=O)(=O)c1cc2c(cc1C)N(C(C)=O)CCO2,108
8,CCn1c(NC(=O)c2cc(Cl)c(OC)c(OC)c2)nc2ccccc21,98.7
9,O=C1NC(c2cc(Br)cs2)Oc2ccccc21 (stereo not drawn),92.3
10,CNS(=O)(=O)c1cc(NC(=O)c2cc3ccccc3cc2O)ccc1C,109
11,O=C1O\C(=N/N1CCC#N)C2=CC=CS2,100
12,CCN(C(=O)c1cccc2c1SCCC2=O)c1cc(Cl)ccc1OC,111
13,Nc1cn(-c2ccc(C(F)(F)F)cn2)nc1Cl,100
14,CCCOc1c(Br)cc(C(=O)OCC(=O)N(C)C2CCS(=O)(=O)C2)cc1OC (stereo not drawn),101
15,CCC1CCCCN1C(=O)COC(=O)c1[nH]c(C)c(C(C)=O)c1C (stereo not drawn),102
16,Cc1nn(C)c(C)c1NC(=O)CSc1nnc(Nc2ccc(OC(F)(F)F)cc2)s1,86
17,COC(=O)c1cc(COC(=O)C2(c3ccccc3F)CCCC2)oc1C,100
18,CCOC(=O)c1[nH]c(C)c(C(=O)Nc2cccc(Cl)c2C)c1C,96.7
19,CC(=O)c1c(C)[nH]c(C(=O)N(Cc2nnc(-c3ccc(Cl)cc3)o2)C(C)C)c1C,109
